The inconclusive results got no clear call from the source; some entries with a clear call stand among them for comparison. A potency beside an inconclusive call is a rough fit, not a confirmed value. The source made the active and inactive calls. How the source made its calls: active means hit-call score of the fitted dose curve at least 0.9, where 1 is the maximum; inconclusive means response in the unintended direction; inactive means score below 0.9.
Target: human Thyroid hormone Receptor alpha (TRa), THRA (gene 7067) (UniProt P10827)
Assay: ATG_hTRa_XSP1: Attagene TRANS-FACTORIAL Multi-Species (XSP1) HepG2 Assay for human Thyroid hormone Receptor alpha (TRa) (AID 2283805)
Description: ATG_XSP1_multi-species_TRANS is a cell-based, multiplexed assay created by modifying the existing Attagene TRANS-FACTORIAL system to include a panel of nuclear receptors from some or all the following species: human (Homo sapiens), mouse (Mus musculus), frog (Xenopus laevis), zebrafish (Danio rerio), chicken (Gallus gallus), and turtle (Chrysemys picta). The ECOTOX-FACTORIAL format uses HepG2, a human liver cell line, with measurements taken at 24 hours after chemical dosing in a 24-well plate. Xsp1 included 3 nM 6-alpha-fluorotestosterone to partially stimulate the androgen receptor.ATG_hTRa_XSP1 is one of 29 assay components measured or calculated from the ATG_XSP1_multi-species_TRANS assay. It is designed to make measurements of mRNA induction, a form of inducible reporter, as detected with fluorescence intensity signals by Reverse transcription polymerase chain reaction (RT-PCR) and Capillary electrophoresis technology.The assay endpoint ATG_hTRa_XSP1 was analyzed in the positive analysis fitting direction relative to DMSO as the negative control and baseline of activity. Using a type of inducible reporter, measures of mRNA for gain-of-signal activity can be used to understand the reporter gene at the transcription factor-level as they relate to the gene TR. Furthermore, this assay endpoint can be referred to as a primary readout, because this assay has produced multiple assay endpoints where this one serves a reporter gene function. To generalize the intended target to other relatable targets, this assay endpoint is annotated to the nuclear receptor intended target family, where the subfamily is non-steroidal.
Human liver HepG2 cells are transiently transfected with multiple reporter transcription units (MRTUs) in 6-well plates using FuGene 6 reagent (Roche; 3 ml FuGene/1 mg DNA). The MRTU constructs are regulated by a cis-regulating element (promoter). […] A major difference between the CIS and TRANS system is that in CIS activities of endogenous TFs are measured, whereas the TRANS assay evaluates changes in activities of exogenous, chimeric NR-Gal4 proteins. […] At the end of 24 hour incubation, total RNA was isolated using TriZol reagent (Invitrogen). The isolated RNA is then reverse-transcribed using oligo(dT) primer and Mo-MLV reverse transcriptase (Invitrogen) with DNAse I (Ambion) treatment for 30 min. The one-tenth of the produced cDNA was amplified by PCR using Taq DNA polymerase (Invitrogen) and two reporter sequence-specific primers. The PCR products were fluorescently labeled by primer extension with 6-arboxyfluorescein (6-FAM) 5'-labeled reporter sequence-specific primer (2 min at 95 C, 20 s at 68 C and 10 min at 72 C) and these products were digested with 5U of HpaI (New England Biolabs) for 2h at 37 C. The fragments were purified using Qiaquick PCR columns (Qiagen), analyzed on an ABI 3130xL genetic analyzer (Applied Biosystems) with peak positions identified by using a set of X-rhodamine (ROX)-labeled MapMarker1000 molecular weight standards (BioVentures). The raw capillary electrophoresis data was processed using Attagraph software (Attagene).

Sequences of proteins named here, by UniProt entry; tags and fusion partners are left off. A change or cut given only in a name is not applied to a line headed by its entry.
UniProt P10827: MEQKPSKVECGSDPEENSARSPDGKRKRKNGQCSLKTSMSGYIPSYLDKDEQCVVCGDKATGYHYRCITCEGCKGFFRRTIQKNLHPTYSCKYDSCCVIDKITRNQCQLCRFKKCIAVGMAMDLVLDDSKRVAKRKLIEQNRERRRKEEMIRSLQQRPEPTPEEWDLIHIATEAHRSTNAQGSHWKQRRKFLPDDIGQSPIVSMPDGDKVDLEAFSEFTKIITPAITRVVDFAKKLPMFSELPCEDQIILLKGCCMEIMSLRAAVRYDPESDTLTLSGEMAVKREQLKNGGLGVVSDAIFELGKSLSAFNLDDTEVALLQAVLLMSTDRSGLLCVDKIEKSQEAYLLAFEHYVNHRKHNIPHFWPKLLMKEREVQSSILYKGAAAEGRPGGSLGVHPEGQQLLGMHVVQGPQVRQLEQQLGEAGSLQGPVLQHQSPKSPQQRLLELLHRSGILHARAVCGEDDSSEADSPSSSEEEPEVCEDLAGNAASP

| SMILES | outcome | AC50 |
| --- | --- | --- |
| C[C@]12CCC(=O)C=C1CC[C@@H]1[C@@H]2CC[C@]2(C)C(=O)CC[C@@H]12 | inactive | inconclusive: 10 µM |
| CC1(C)CCC(Cc2ccc(Cl)cc2)C1(O)Cn1cncn1 (centres undefined) | – | inconclusive: 100 µM |
| CC(C)(c1ccccc1)c1ccc(O)cc1 | inactive | – |
| CC1(C)CCC(=Cc2ccc(Cl)cc2)C1(O)Cn1cncn1 (centres undefined) | inactive | – |
| Oc1cc(Cl)ccc1Oc1ccc(Cl)cc1Cl | – | active: 7.06 µM |
| Cc1c(COC(=O)[C@@H]2[C@H](/C=C(\Cl)C(F)(F)F)C2(C)C)cccc1-c1ccccc1 | – | inconclusive: 0.446 µM |
| C#CCOS(=O)OC1CCCCC1Oc1ccc(C(C)(C)C)cc1 (centres undefined) | inactive | – |
| COP(=S)(OC)Oc1nc(Cl)c(Cl)cc1Cl | – | inconclusive: 30.5 µM |
| COc1ccc(C(c2ccc(OC)cc2)C(Cl)(Cl)Cl)cc1 | inactive | – |
| CC1(C)C(C=C(Cl)Cl)C1C(=O)OC(C#N)c1cccc(Oc2ccccc2)c1 (centres undefined) | – | inconclusive: 19.8 µM |
| CCCCCOC(=O)c1ccccc1C(=O)OCCCCC | inactive | – |
| CC(C)(O)C(=O)Nc1ccc([N+](=O)[O-])c(C(F)(F)F)c1 | – | active: 50 µM |
| Oc1ccc(C(c2ccc(O)cc2)(C(F)(F)F)C(F)(F)F)cc1 | inactive | inconclusive: 33.4 µM |
| CCCCNC(=O)OCC#CI | inactive | – |
| CC12CC1(C)C(=O)N(c1cc(Cl)cc(Cl)c1)C2=O (centres undefined) | inactive | – |
| C[C@]12CCC(=O)C=C1CC[C@@H]1[C@@H]2CC[C@@]2(C)[C@H]1CC[C@]2(C)O | inactive | – |
| CC1(C)C(C=C(Cl)Cl)C1C(=O)OC(C#N)c1ccc(F)c(Oc2ccccc2)c1 (centres undefined) | inactive | – |
| ClC(Cl)=C(c1ccc(Cl)cc1)c1ccc(Cl)cc1 | – | inconclusive: 10 µM |
| CC(C)(C)c1cc(O)ccc1O | inactive | – |

Gathered by group, the compounds so far with fluorine (4)

| SMILES | outcome | AC50 |
| --- | --- | --- |
| Cc1c(COC(=O)[C@@H]2[C@H](/C=C(\Cl)C(F)(F)F)C2(C)C)cccc1-c1ccccc1 | – | inconclusive: 0.446 µM |
| CC(C)(O)C(=O)Nc1ccc([N+](=O)[O-])c(C(F)(F)F)c1 | – | active: 50 µM |
| Oc1ccc(C(c2ccc(O)cc2)(C(F)(F)F)C(F)(F)F)cc1 | inactive | inconclusive: 33.4 µM |
| CC1(C)C(C=C(Cl)Cl)C1C(=O)OC(C#N)c1ccc(F)c(Oc2ccccc2)c1 (centres undefined) | inactive | – |

(cont.)

| SMILES | outcome | AC50 |
| --- | --- | --- |
| CCCOCC(=Nc1ccc(Cl)cc1C(F)(F)F)n1ccnc1 | – | inconclusive: 0.115 µM |
| CC(C)CCCCCCCOC(=O)c1ccccc1C(=O)OCCCCCCCC(C)C | – | inconclusive: 100 µM |
| C[C@]12CCC(=O)C[C@@H]1CC[C@@H]1[C@@H]2CC[C@]2(C)[C@@H](O)CC[C@@H]12 | inactive | – |
| Clc1ccc(C(c2ccccc2Cl)C(Cl)(Cl)Cl)cc1 (centres undefined) | inactive | – |
| CCCN(CCC)c1c([N+](=O)[O-])cc(C(F)(F)F)cc1[N+](=O)[O-] | – | inconclusive: 100 µM |
| Clc1ccc(C(c2ccc(Cl)cc2)C(Cl)Cl)cc1 | – | inconclusive: 0.00914 µM |
| CC(=O)c1cc2c(cc1C)C(C)(C)C(C)CC2(C)C (centres undefined) | – | inconclusive: 60.4 µM |
| CCC[CH2][Sn]([Cl])([CH2]CCC)[CH2]CCC | – | active: 0.0865 µM |
| C[C@]12C=CC3=C4CCC(=O)C=C4CC[C@H]3[C@@H]1CC[C@@H]2O | – | inconclusive: 0.1 µM |
| CCOCN(C(=O)CCl)c1c(C)cccc1CC | – | inconclusive: 0.493 µM |
| CON(C)C(=O)Nc1ccc(Cl)c(Cl)c1 | inactive | – |
| COP(=S)(OC)Oc1ccc([N+](=O)[O-])c(C)c1 | inactive | – |
| CC(C)Oc1cc(-n2nc(C(C)(C)C)oc2=O)c(Cl)cc1Cl | – | inconclusive: 100 µM |
| CCCCOC(=O)c1ccccc1C(=O)OCCCC | – | inconclusive: 100 µM |
| Oc1ccc(Cl)cc1Cc1ccccc1 | inactive | – |
| COP(=O)(OC)O/C(=C\Cl)c1cc(Cl)c(Cl)cc1Cl | – | inconclusive: 27.1 µM |
| CCCN(CCC)c1c([N+](=O)[O-])cc(S(N)(=O)=O)cc1[N+](=O)[O-] | – | active: 8.28 µM |
| CC(C)NC(=O)N1CC(=O)N(c2cc(Cl)cc(Cl)c2)C1=O | – | inconclusive: 100 µM |

— PubChem BioAssay (EPA / NIEHS)
